In patent US10654927B2, “Signalling system” (UCL BUSINESS PLC, priority 2014, dated 2020):
At least one structure is not confirmed: it was looked up by name or label, or the drawing left a doubt.

Tested on: TiP / TetR CAR
Assay: Fluorescent microscopy of SupT1 cells expressing TiP-eGFP and a CAR with TetR as its endodomain
Type: cell-based
Conditions: presence of tetracycline versus absence

`CN(C)[C@@H]1C(O)=C(C(N)=O)C(=O)[C@@]2(O)C(O)=C3C(=O)c4c(O)cccc4[C@@](C)(O)[C@H]3C[C@@H]12` [tetracycline] was tested, and the “eGFP localisation / displacement of TiP from TetR” value was “displaced TiP from the TetR CAR”.
